{"source": "PubChem BioAssay AID624297", "about": "(National Center for Advancing Translational Sciences (NCATS), 2012)", "note": "Screen size: about 340,000 compounds; about 6,200 (1.8%) were called active. The inconclusive results got no clear call from the source; some entries with a clear call stand among them for comparison. Calls come from the whole dose curve; as a rule, active = well fitted activation curve with a large enough effect; inconclusive = small, poorly fitted or top-dose-only effect; inactive = no such curve, though single readings can be large or run the other way. A potency beside an inconclusive call is a rough fit, not a confirmed value. Potency is the fitted concentration of half-maximal effect."}
{"test": "A quantitative high throughput screen for small molecules that induce DNA re-replication in SW480 colon adenocarcinoma cells; note: nearly all actives have a fitted effect of over 55% in size.", "conditions": "Hoechst DNA content imaging, 48 h; series mostly up to 46.1 µM", "outline": "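DNA re-replication was detected as more nuclei of elevated Hoechst intensity after 48 hr exposure to compound (23 nL pinned per well of 250 cells).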"}
{"smiles": "COc1cccc(-c2cc(C(=O)NCC3CCCO3)c3cc(C)cc(C)c3n2)c1", "note": "(configuration not stated)", "Potency": "inactive"}
{"smiles": "CN1OC[C@@H]2CN(C(=O)CCc3ccccc3)[C@H](c3cccc(-c4ccccc4)c3)C[C@@H]21", "Potency": "inconclusive: 18.4 µM [activator, partial curve, poor fit]"}
{"smiles": "Cn1ccnc1-c1nc2ccccc2[nH]c1=O", "Potency": "inconclusive: 7.31 µM [activator, partial curve, poor fit]"}
{"smiles": "CN(C)Cc1c(O)ccc2c(=O)c(-c3ccccc3Cl)c(C(F)(F)F)oc12", "Potency": "inconclusive: 29.1 µM [activator, single point]"}
{"smiles": "Cc1ccc(SCc2cn3c(C)cc(C)nc3n2)cc1", "Potency": "inactive"}
{"smiles": "Cc1ccc(NC(=O)c2ccccc2N2C(=O)C3C4C=CC(C5CC45)C3C2=O)cc1C", "note": "(configuration not stated)", "Potency": "inactive"}
{"smiles": "Cc1cc(NC(=O)c2ccc(Cl)cc2)cc(C)c1OCC(=O)N1CCOCC1", "Potency": "inactive"}
{"smiles": "Cc1cc(C)c2cc(CN(Cc3ccco3)C(=O)NCc3ccccc3)c(=O)[nH]c2c1", "Potency": "inconclusive: 4.11 µM [activator, partial curve, poor fit]"}
{"smiles": "C=CCNC(=O)/C(=C/c1cccc([N+](=O)[O-])c1)NC(=O)c1ccco1", "Potency": "inactive"}
{"smiles": "O=C(CSc1nnc(-c2ccccc2F)n1C1CCCCC1)N1CCCC1", "Potency": "inactive"}
{"smiles": "CCOc1ccc(Oc2ccc(C(F)(F)F)cc2N)cc1", "Potency": "inconclusive: 23.1 µM [activator, partial curve, poor fit]"}
{"smiles": "COc1ccc(Cc2c(C)nc(N)nc2Cl)cc1", "Potency": "inactive"}
{"smiles": "CCCOc1cc(C)c(S(=O)(=O)NCc2cccs2)cc1C", "Potency": "inactive"}
{"smiles": "Cc1cc(=O)n(-c2ccc(C(=O)O)cc2)[nH]1", "Potency": "inactive"}
{"smiles": "COc1ccc(NC(=O)Nc2ccc(C(C)C)cc2)cc1", "Potency": "inactive"}
{"smiles": "COc1ccc(C(=O)c2cc([N+](=O)[O-])ccc2N2CCOCC2)cc1", "Potency": "active: 0.366 µM"}
{"smiles": "CCOC(=O)C1(Cc2cccc(OC)c2)CCCN(Cc2cc(OC)c(O)c(OC)c2)C1", "note": "(configuration not stated)", "Potency": "inactive"}
{"smiles": "CCCc1nc2ccccc2c(C(=O)N(CC)CC(=O)NCc2cccs2)c1CC", "Potency": "inconclusive: 0.164 µM [activator, full curve, poor fit]"}
{"smiles": "Nc1c(-c2ccc(Cl)cc2)cnc2c(-c3ccc(F)cc3)cnn12", "Potency": "inactive"}
{"smiles": "CCN(c1ccc(NC(=O)COC(=O)C2CCN(c3ccc(C(F)(F)F)cn3)CC2)cc1)C(C)C", "Potency": "inconclusive: 29.1 µM [activator, single point]"}
{"smiles": "COCc1ccc(CN2CCc3c([nH]c4ccccc34)C2C(C)(C)C)o1", "note": "(configuration not stated)", "Potency": "inconclusive: 29.1 µM [activator, single point]"}
{"smiles": "Cc1ccc(N2C(=O)c3ccc(N)cc3C2=O)cc1C", "Potency": "inactive"}
{"smiles": "CC(C)=C(NC(=O)c1ccccc1)C(=O)N1CCOCC1", "Potency": "inactive"}
{"smiles": "COc1ccc(-c2noc(CCC(=O)NCCCN3CCN(c4ccc(F)cc4)CC3)n2)cc1", "Potency": "inconclusive: 29.1 µM [activator, single point]"}
{"smiles": "Cc1cc(F)ccc1NC(=O)c1cc(S(=O)(=O)N2CCCC2)cn1C", "Potency": "inactive"}
{"smiles": "COc1ccc(C2=NN(C(=O)CSc3nc(=O)n4cc(C)ccc4n3)C(c3ccc(C)cc3)C2)cc1", "note": "(configuration not stated)", "Potency": "inactive"}
{"smiles": "COc1ccc(OC)c(NS(=O)(=O)c2ccc(N3CCCC3=O)cc2)c1", "Potency": "active: 0.82 µM"}
{"smiles": "CCS(=O)(=O)N1CCC(C(=O)Oc2ccc(C(=O)OC)cc2)CC1", "Potency": "inactive"}
{"smiles": "COCCn1c(=O)[nH]c(=O)c2cc(C(=O)c3cc(Cl)ccc3O)cnc21", "Potency": "inconclusive: 29.1 µM [activator, single point]"}
{"smiles": "Cc1ccc(C)c(C(=O)c2ccccc2NC(=O)c2ccccn2)c1", "Potency": "inconclusive: 18.4 µM [activator, single point]"}
{"smiles": "O=C1NC[C@@H](c2ccccc2)OC(=O)[C@H](Cc2ccc(F)cc2)CC/C=C/C[C@H]1CC(=O)N(CCO)Cc1ccccc1", "Potency": "inactive"}
{"smiles": "CCOC(=O)c1nnc(-c2ccc(C)cc2)nc1Oc1ccccc1Cl", "Potency": "inconclusive: 18.4 µM [activator, single point]"}
{"smiles": "COc1cccc(CC(NC(C)=O)C(=O)NC2CCN(C(=O)c3ccc(Cl)cc3)CC2)c1OC", "note": "(configuration not stated)", "Potency": "inactive"}
{"smiles": "Cc1ccc(S(=O)(=O)c2cc3c(=O)n4ccccc4nc3n(CCCN3CCOCC3)c2=N)cc1C", "Potency": "active: 23.1 µM"}
{"smiles": "CC(=O)Nc1ccc(S(=O)(=O)NC2=C(N3CCN(C)CC3)C(=O)c3ccccc3C2=O)cc1", "Potency": "inconclusive: 2.06 µM [activator, partial curve, poor fit]"}
{"smiles": "O=c1c2ccccc2oc2cc(NCCCn3ccnc3)ccc12", "Potency": "inconclusive: 23.1 µM [activator, single point]"}
{"smiles": "COc1ccc(C(C(=O)Nc2ccc(C(C)C)cc2)N(Cc2ccco2)C(=O)CC2NC(=O)NC2=O)cc1", "note": "(configuration not stated)", "Potency": "inactive"}
{"smiles": "Nc1ccc(C(=O)OCC(=O)N2CCc3ccccc3C2)cc1[N+](=O)[O-]", "Potency": "inconclusive: 7.31 µM [activator, partial curve, poor fit]"}
{"smiles": "Cc1onc(-c2ccccc2Cl)c1C(=O)N(C)C1CCCCC1", "Potency": "inactive"}
{"smiles": "O=C(CN1CCN(C(=O)N2CCOCC2)CC1)Nc1cc(Cl)ccc1Cl", "Potency": "inactive"}
{"smiles": "COc1cccc(/C=N/Nc2ccc(Cl)nn2)c1OC", "Potency": "inconclusive: 29.1 µM [activator, single point]"}
{"smiles": "Cc1ccc(C(C)C)c(OC/C(O)=C(\\C#N)c2nc3ccccc3[nH]2)c1", "Potency": "inconclusive: 25.9 µM [activator, partial curve, poor fit]"}
{"smiles": "Cc1ccc2oc(Nc3nc(-c4ccccc4)cc(=O)[nH]3)nc2c1", "Potency": "inconclusive: 29.1 µM [activator, single point]"}
{"smiles": "O=C(CN1CCOCC1)Nc1ncc(Cc2cccc(Cl)c2)s1", "Potency": "active: 8.2 µM"}
{"smiles": "COCCCn1c(O)c(/C=C2\\N=C(C#N)C(=Nc3ccc(C)cc3)O2)sc1=S", "Potency": "inconclusive: 32.6 µM [activator, partial curve, poor fit]"}
{"smiles": "COc1cccc(/C=C/c2ccc3ccccc3n2)c1OC(C)=O", "Potency": "inconclusive: 20.6 µM [activator, partial curve, poor fit]"}
{"smiles": "COC(=O)c1ccc(/C=C2\\CCn3c2nc2cc(C(=O)O)ccc2c3=O)cc1", "Potency": "inconclusive: 18.4 µM [activator, single point]"}
{"smiles": "CN1C(=O)c2cccc3c(N)ccc(c23)C1=O", "Potency": "inconclusive: 29.1 µM [activator, single point]"}
{"smiles": "O=c1c([N+](=O)[O-])cccn1Cc1ccc(F)cc1Cl", "Potency": "inconclusive: 29.1 µM [activator, single point]"}
{"smiles": "CCC(C)N(C(=O)COC(=O)c1ccc(=O)n(Cc2ccccc2)n1)C1CCS(=O)(=O)C1", "note": "(configuration not stated)", "Potency": "inactive"}
{"smiles": "CCc1cc(C(=O)N=Nc2c(O)[nH]c3c(Br)cc(Br)cc23)c2ccccc2n1", "Potency": "inconclusive: 20.6 µM [activator, single point]"}
{"smiles": "Nc1nnc(-c2ccccc2)c(-c2ccccc2)n1", "Potency": "inactive"}
{"smiles": "Cc1ccc(S(=O)(=O)Nc2ccccc2C(=O)N2CCOCC2)cc1", "Potency": "inactive"}
{"smiles": "CC1CCCN(CCCNC(=O)c2ccc3c(c2)N(Cc2ccc(F)cc2)C(=O)c2ccccc2S3=O)C1", "note": "(configuration not stated)", "Potency": "active: 20.6 µM"}
{"smiles": "CCOC(=O)c1cnc2c(OC)cccc2c1Nc1ccc2c(c1)OCCO2", "Potency": "inconclusive: 25.9 µM [activator, single point]"}
{"smiles": "CCCN1CC(=O)N2C(c3cccc(OC)c3OC)c3[nH]c4ccccc4c3C[C@H]2C1=O", "note": "(some centres not stated)", "Potency": "inactive"}
{"smiles": "COCc1nnc(NC(=O)c2ccc(S(=O)(=O)N(C)Cc3ccccc3)cc2)o1", "Potency": "inconclusive: 29.1 µM [activator, single point]"}
{"smiles": "CC(=O)c1ccc(-c2ccc(-c3cc(=O)oc4c(C(C)C)ccc(C)c34)cc2)cc1", "Potency": "inactive"}
{"smiles": "Oc1cccc(C(Nc2nccs2)c2ccc3cccnc3c2O)c1", "note": "(configuration not stated)", "Potency": "inconclusive: 0.58 µM [activator, full curve]"}
{"smiles": "Cc1cccc(C)c1OCC(=O)NCc1nnc(SCC(=O)NC2CCCCC2C)n1C", "note": "(configuration not stated)", "Potency": "inactive"}
{"smiles": "CC1(C)CC(=O)C(C=Nc2ccc(O)c(N=CC3=C(O)CC(C)(C)CC3=O)c2)=C(O)C1", "Potency": "inactive"}
{"smiles": "O=C(NCc1ccccc1Cl)C1CCN(S(=O)(=O)N2CCCCCC2)CC1", "Potency": "inconclusive: 17.8 µM [activator, single point]"}
{"smiles": "CCOc1ccccc1C1c2cc3c(cc2OC(C)(N2CCCC2)C1C)OCO3", "note": "(configuration not stated)", "Potency": "inconclusive: 0.13 µM [activator, full curve, poor fit]"}
{"smiles": "Cc1ccc(NC(=O)CNC(=O)OCc2ccccc2)cc1C", "Potency": "inactive"}
{"smiles": "COc1ccc(Cc2nnc(N/N=C/c3ccccc3O)[nH]c2=O)cc1OC", "Potency": "inconclusive: 0.731 µM [activator, full curve, poor fit]"}
{"smiles": "CC1(C)Cc2ccccc2-c2nnc(SCC(=O)N3CCc4ccccc43)n21", "Potency": "inactive"}
{"smiles": "CC(C)c1nc2cc(C(=O)N3CCNC(=O)C3c3ccc(F)cc3)ccc2o1", "note": "(configuration not stated)", "Potency": "inconclusive: 29.1 µM [activator, single point]"}
{"smiles": "Cc1ccc2cc(C#N)c(SCC(=O)N3CCCc4ccccc43)nc2c1C", "Potency": "inactive"}
{"smiles": "COc1ccc(N/C=C(\\C=C\\C#N)S(=O)(=O)c2ccccc2)cc1", "Potency": "inconclusive: 23.1 µM [activator, single point]"}
{"smiles": "C#CCOCCOCCOCCNc1nc(N2CCN(C(=O)CCCCCCCCCCNC(=O)[C@H](CCCCN)n3cc(CCCC(=O)O)nn3)CC2)nc(N2CCN(C(=O)CCCCCCCCCCNC(=O)[C@H](CCCN=C(N)N)n3cc(C[C@@H](C)CC)nn3)CC2)n1", "Potency": "inactive"}
{"smiles": "COc1ccc(C(=O)Nc2nc3ccccc3[nH]2)cc1S(=O)(=O)N1CCOCC1", "Potency": "inconclusive: 29.1 µM [activator, single point]"}
{"smiles": "CC(=O)NC(NC(=S)Nc1c(C)n(C)n(-c2ccccc2)c1=O)C(Cl)(Cl)Cl", "note": "(configuration not stated)", "Potency": "inconclusive: 18.4 µM [activator, single point]"}
